The experiment has as its target T1, Flag-UCHL3 expressed in HGC-27 cells (UniProt P15374).
T1 sequence: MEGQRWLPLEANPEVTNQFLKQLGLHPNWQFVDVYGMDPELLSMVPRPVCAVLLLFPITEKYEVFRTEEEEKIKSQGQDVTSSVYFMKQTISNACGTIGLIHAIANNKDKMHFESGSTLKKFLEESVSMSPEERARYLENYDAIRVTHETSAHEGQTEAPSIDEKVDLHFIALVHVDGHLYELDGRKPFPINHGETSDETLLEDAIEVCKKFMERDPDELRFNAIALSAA
In words: affinity purification with mass spectrometry; Flag immunoprecipitation from HGC-27 cells transfected with Flag-UCHL3 or empty vector; SDS-PAGE, silver stain; mass spectrometry.

Sequences of proteins named here, by UniProt entry; tags and fusion partners are left off.
UniProt P06733: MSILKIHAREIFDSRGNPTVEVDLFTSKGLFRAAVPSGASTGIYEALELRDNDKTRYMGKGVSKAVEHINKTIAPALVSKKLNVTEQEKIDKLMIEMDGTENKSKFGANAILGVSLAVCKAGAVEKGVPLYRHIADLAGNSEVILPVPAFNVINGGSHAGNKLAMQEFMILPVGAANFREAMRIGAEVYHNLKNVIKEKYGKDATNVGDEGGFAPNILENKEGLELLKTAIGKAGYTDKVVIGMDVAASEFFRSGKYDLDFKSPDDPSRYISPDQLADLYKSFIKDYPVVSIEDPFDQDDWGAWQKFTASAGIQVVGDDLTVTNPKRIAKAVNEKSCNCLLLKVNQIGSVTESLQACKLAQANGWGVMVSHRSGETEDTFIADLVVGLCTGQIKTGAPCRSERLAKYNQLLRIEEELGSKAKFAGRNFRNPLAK

No constants are given. Whether binding was seen depends on the method and setting. Binding seen in cells or lysates may run through a third protein. Here binding means that the protein was enriched with, or labelled near, the bait; the list need not be complete. Sequences can lack the tags named with a protein.

With “ENO1, endogenous in HGC-27 cells (from UniProt P06733 1-434)”, the binding entry was “binds”.
